Measured values: patent EP4057003A1, “SELECTIVE SULFATE ANION DETECTION USING GUANYLATED FLUOROPHORES” (Universidad de Castilla la Mancha, priority 2021, dated 2022)

Assay: Sulfate quantification in real water samples by fluorescence titration with the fluorophore
Conditions: for Found value (overall sulfate concentration in the commercial bottle): Commercial mineral water sample
Procedure: For the sulfate anion quantification of real samples, a 5µM test sample aqueous solution of sulfate was prepared from commercial MgSO4 and titrated (n = 3) by the successive addition of small volumes (in the order of microliters) of stock solution of guanylated fluorophore (A) of 1 mM in the quartz cuvette. A similar procedure was carried out for the titration of commercial mineral water samples. These samples of 5.5 and 7.5 µM sulfate anion concentration were prepared by dilutions of commercial mineral water, with labelling sulfate values of 1.20 mM (115 mg/L), in milli-Q water.
Guanylated fluorophore (A) was tested as a sulfate sensor in water samples, with three real sulfate-containing aqueous samples: a) test sample with 5 µM sulfate anion (prepared in the lab from commercial MgSO4), b) two different commercial mineral water samples (5.5 and 7.5 µM respectively) prepared by dilutions in milli-Q water.
Titration was performed by successively adding to 3 mL of an aqueous sample comprising sulfate anions a plurality of equal volumes (3 µL) of a solution of guanylated fluorophore of a known concentration (of 1 mM), gradually increasing the concentration of the guanylated fluorophore in the test sample from 0 to 12 µM. The fluorescence spectrum of the resulting solution after each addition was measured with an excitation wavelength of 272 nm in the range of 300 to 500 nm. For each spectrum the value of fluorescence (F) at its maximum (at 370 nm) was taken. Each F value was divided by the fluorescence value in absence of the guanylated fluorophore (F0) and multiplied by 100 to obtain the % of fluorescence increase in the presence of the guanylated fluorophore ((F/F0)*100). The % fluorescence increase was plotted against the corresponding concentration of the guanylated fluorophore of the resulting solution after each addition of guanylated fluorophore to the sulfate containing aqueous sample (figure 6c). […] The inflection point corresponds to the point wherein the concentration ratio of guanylated fluorophore to sulfate is 1, and therefore the concentration value of the sulfate concentration of the measured sample could be determined.

CC(C)NC(=Nc1ccc2c(c1)Cc1ccccc1-2)NC(C)C [guanylated fluorophore (A), 2-(9H-fluoren-2-yl)-1,3-diisopropylguanidine]
Found value (overall sulfate concentration in the commercial bottle) (labeling value 1.20 mM): 1.26 ± 0.5 mM
Found value (overall sulfate concentration in the commercial bottle) (real value 115 mg/L): 121 mg/L
Found value (sulfate concentration) (Test sample, real value 5 µM, prepared from MgSO4, n = 3): 5.07 ± 0.2 µM
Found value (sulfate concentration) (diluted commercial mineral water sample, 5.5 µM): 5.61 ± 0.1
Found value (sulfate concentration) (diluted commercial mineral water sample, 7.5 µM): 7.42 ± 0.2
LOQ (Limit of quantitation) (ten times the standard deviation of the blank): 0.34 µM
LOD (Limit of detection) (three times the standard deviation of the blank): 0.10 µM
